The target of assay [1] is SorLA expressed on cells (stably transfected HEK293 cells; SY5Y neuroblastoma cells, endogenous or overexpressed) (Homo sapiens) (UniProt Q92673). Kind of assay: DSP crosslinking, immunoprecipitation with anti-GFRα4 and Western blot, HEK293 cells.
Assay [2] deals with SorLA extracellular domain (immobilized on the Biacore chip) (Homo sapiens) (UniProt Q92673). Description: SPR, chip coated with SorLA. In general terms: In SPR one partner is held on a chip, and binding of the other changes the refractive index at the surface.

By UniProt entry, the sequences of proteins in these tests, tags left out. Where a name states a change or a piece, a line headed by the entry shows the natural chain unless it says otherwise.
UniProt Q92673: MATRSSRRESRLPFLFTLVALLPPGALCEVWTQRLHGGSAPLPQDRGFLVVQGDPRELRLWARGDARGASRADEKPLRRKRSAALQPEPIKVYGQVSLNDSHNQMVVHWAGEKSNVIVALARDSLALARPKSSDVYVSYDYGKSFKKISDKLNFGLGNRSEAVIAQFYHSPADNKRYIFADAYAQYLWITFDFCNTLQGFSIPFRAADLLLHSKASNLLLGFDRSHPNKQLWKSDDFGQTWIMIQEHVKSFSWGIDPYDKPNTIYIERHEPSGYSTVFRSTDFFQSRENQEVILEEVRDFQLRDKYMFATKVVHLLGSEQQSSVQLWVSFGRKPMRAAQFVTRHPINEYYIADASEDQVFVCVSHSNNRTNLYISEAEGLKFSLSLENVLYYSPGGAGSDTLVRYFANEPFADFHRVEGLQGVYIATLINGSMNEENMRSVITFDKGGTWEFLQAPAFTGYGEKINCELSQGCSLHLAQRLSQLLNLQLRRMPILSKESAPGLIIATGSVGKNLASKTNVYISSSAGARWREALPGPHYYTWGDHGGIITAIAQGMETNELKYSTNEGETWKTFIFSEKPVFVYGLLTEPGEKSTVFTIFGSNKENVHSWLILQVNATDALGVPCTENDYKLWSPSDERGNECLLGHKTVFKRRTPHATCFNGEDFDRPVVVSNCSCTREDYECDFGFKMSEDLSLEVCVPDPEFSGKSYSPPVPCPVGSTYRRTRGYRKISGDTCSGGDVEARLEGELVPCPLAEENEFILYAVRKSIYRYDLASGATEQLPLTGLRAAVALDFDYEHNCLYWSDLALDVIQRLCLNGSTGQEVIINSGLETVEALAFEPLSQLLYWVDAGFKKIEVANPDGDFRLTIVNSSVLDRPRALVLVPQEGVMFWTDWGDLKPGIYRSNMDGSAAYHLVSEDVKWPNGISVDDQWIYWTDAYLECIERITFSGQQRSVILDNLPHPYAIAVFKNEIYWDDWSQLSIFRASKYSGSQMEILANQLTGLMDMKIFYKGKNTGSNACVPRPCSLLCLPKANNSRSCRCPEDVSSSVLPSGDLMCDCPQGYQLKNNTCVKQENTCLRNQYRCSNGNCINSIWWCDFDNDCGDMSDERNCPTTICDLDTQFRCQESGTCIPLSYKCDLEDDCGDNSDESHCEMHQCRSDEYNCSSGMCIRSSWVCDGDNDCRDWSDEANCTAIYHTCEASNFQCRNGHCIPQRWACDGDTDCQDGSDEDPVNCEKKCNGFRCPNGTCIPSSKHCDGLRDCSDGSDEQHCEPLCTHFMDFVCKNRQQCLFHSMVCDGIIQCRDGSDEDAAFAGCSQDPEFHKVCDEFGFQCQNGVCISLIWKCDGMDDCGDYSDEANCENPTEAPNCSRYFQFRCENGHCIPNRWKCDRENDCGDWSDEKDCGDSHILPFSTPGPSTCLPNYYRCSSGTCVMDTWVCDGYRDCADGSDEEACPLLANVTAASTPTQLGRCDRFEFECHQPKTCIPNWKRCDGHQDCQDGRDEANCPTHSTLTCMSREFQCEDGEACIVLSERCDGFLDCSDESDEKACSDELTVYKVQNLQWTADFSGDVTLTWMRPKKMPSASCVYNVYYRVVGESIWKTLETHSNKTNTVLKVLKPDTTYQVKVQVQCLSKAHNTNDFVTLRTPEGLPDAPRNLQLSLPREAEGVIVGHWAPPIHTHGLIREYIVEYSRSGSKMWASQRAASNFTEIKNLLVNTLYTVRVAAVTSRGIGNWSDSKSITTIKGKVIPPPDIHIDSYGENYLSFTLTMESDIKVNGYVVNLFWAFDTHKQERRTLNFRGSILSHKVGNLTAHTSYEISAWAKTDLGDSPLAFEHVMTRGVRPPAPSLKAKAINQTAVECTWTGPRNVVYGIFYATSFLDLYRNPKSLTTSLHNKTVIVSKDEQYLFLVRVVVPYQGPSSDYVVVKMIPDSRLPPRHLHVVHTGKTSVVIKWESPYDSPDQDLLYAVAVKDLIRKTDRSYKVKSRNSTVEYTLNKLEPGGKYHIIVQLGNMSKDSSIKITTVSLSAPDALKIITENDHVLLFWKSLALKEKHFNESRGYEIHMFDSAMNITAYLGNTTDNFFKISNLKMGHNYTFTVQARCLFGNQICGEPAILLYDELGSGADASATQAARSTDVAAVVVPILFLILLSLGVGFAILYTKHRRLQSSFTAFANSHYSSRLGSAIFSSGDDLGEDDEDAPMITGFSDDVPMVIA

No constants are given. Whether binding was seen depends on the method and setting. Some binding calls cover weakened binding; strength is not graded here.

B1: GFRα4 expressed on cells (HEK293 cells with SorLA) (receptor)
chain: VGGNRCVDAAEACTADARCQRLRSEYVAQCLGRAAQGGCPRARCRRALRRFFARGPPALTHALLFCPCAGPACAERRRQTFVPSCAFSGPGPAPPSCLEPLNFCERSRVCRCARAAAGPWRGWGRGLSPAHRPPAAQASPPGLSGLVHPSAQRPRRLPAGPGRPLPARLRGPRGVPAGTAVTPNYVDNVSARVAPWCDCGASGNRREDCEAFRGLFTRNRCLDGAIQAFASGWPPVLLDQLNPQGDPEHSLLQVSSTG
Turning to B1, the binding result in assay [1] was “binds”.

B2: GFRα4 extracellular domain (receptor)
chain: VGGNRCVDAAEACTADARCQRLRSEYVAQCLGRAAQGGCPRARCRRALRRFFARGPPALTHALLFCPCAGPACAERRRQTFVPSCAFSGPGPAPPSCLEPLNFCERSRVCRCARAAAGPWRGWGRGLSPAHRPPAAQASPPGLSGLVHPSAQRPRRLPAGPGRPLPARLRGPRGVPAGTAVTPNYVDNVSARVAPWCDCGASGNRREDCEAFRGLFTRNRCLDGAIQAFASGWPPVLLDQLNPQGDPEHSLLQVSSTG
B2: the binding entry in assay [2] is on record as “binds”.

(Values after US20130115212A1.)
